Some of these results come from one statement about several compounds together. At least one compound was matched to its structure with a doubt left.
Tested on: airway smooth muscle (bronchial rings)
Assay: Relaxation of evoked isometric force of bronchial rings (wire myograph)
Format: cell-based, mice
Conditions: MCh-evoked force; concentration not restated (500 μM screen)
Experimental: Briefly, the entire respiratory tree was rapidly removed and immersed in Krebs-Henseleit buffer (118.1 mM NaCl, 4.7 mM KCl, 1.2 mM MgSO4, 2.5 mM CaCl2, 1.0 mM NaH2PO4, 25 mM NaHCO3 and 11.1 mM glucose, pH 7.4). Bronchial rings, 2 mm in length, were isolated from pulmonary bronchi using a dissection microscope. Then the bronchial segments were mounted in a small-vessel wire myograph chamber (Danish Myo Technology, Aarhus, Denmark) by threading on two steel wires (40 μm in diameter) secured to two supports. One support was attached to a force transducer for measurements of isometric force development, and the other was attached to a micrometer controlling ring circumference. The preparation was kept in the chamber, immersed in 5 ml of Krebs-Henseleit solution, bubbled with 5% CO2 and 95% O2 and maintained at 37° C. The initial isometric tension of bronchial ring was set to 0 mN prior to equilibration for 20 min. The bronchial ring was then stretched in order to keep the force at 5 mN followed by an additional equilibration for 20 min. The isometric forces produced by bronchial ring was recorded with a data acquisition and analysis program (Danish Myo Technology, Aarhus, Denmark). […]
Their dose-responsive effect on relaxation of airway smooth muscle was measured. […]

Structure (SMILES): C[C@@H]1O[C@@H](O[C@@H]2[C@H](O)[C@@H](O)[C@H](O[C@H]3CC[C@@]4(C)C(CC[C@]5(C)C4C=C[C@]46OC[C@@]7(CCC(C)(C)CC74)[C@@H](O)C[C@]65C)C3(C)C)O[C@@H]2CO[C@@H]2O[C@H](CO)[C@@H](O)[C@H](O)[C@H]2O)[C@H](O)[C@H](O)[C@H]1O (stereo partly shown) [Saikosaponin C]
- force relaxed (two of the five active compounds): more than 80%

From patent US10786521B2, “Methods and compositions for treatment of COPD diseases” (Shanghai KE Pharmaceutical Co., LTD, priority 2014, dated 2020)
